Laboratory results as given in patent publication US20030199424A1, “Method of treatment and/or prophylaxis” (priority 2002, published 2003).
Values joined by “and” are separate entries in the source; they are usually repeats but may differ in a detail not shown here. Equal entries are not always repeated.

Legend:
[1] = tested on: non-diabetic rats; assay: Opioid-mediated antinociception (Von Frey, % MPE) in non-diabetic control rats; format: in vivo, rat; details: morphine 2.4 mg/kg s.c.
Description: A second group of STZ-diabetic rats received vehicle (DMSO:water 10:90) by oral gavage (protocol-control rats). In the third group, weight-matched, naive, non-diabetic control rats (non-diabetic candesartan control rats) were also treated with candesartan for one wk prior to opioid antinociceptive testing to determine any intrinsic effects of candesartan on baseline pain scores and on opioid-mediated antinociception.
The statistical significance criterion was p<0.05.

[2] = tested on: STZ-diabetic rats; assay: Opioid-mediated antinociception (Von Frey, % MPE) in STZ-diabetic rats
[3] = morphine 2.4 mg/kg s.c., candesartan (0.5 mg/kg/day) treated STZ-diabetic rats, 9 wks post-STZ
[4] = morphine 6.1 mg/kg s.c., control STZ-diabetic rats, 3 wks post-STZ
[5] = morphine 6.1 mg/kg s.c., control STZ-diabetic rats, 9 wks post-STZ
[6] = morphine 14 mg/kg s.c., candesartan (0.5 mg/kg/day) treated STZ-diabetic rats, 12 wks post-STZ
[7] = morphine 14 mg/kg s.c., control STZ-diabetic rats, 12 wks post-STZ
[8] = morphine 18 mg/kg s.c., candesartan (0.5 mg/kg/day) treated STZ-diabetic rats, 21 wks post-STZ
[9] = morphine 18 mg/kg s.c., candesartan (0.5 mg/kg/day) treated STZ-diabetic rats, 24 wks post-STZ
[10] = morphine 18 mg/kg s.c., control STZ-diabetic rats, 24 wks post-STZ

For CN1CC[C@]23c4c5ccc(O)c4O[C@H]2[C@@H](O)C=C[C@H]3[C@H]1C5 [morphine], the “Mean (±SEM) % MPE AUC” value ([1]; candesartan (2.0 mg/kg/day) treated non-diabetic rats) was 140 (±8.3) % MPE.h, the “Mean (±SEM) % MPE AUC” value ([1]; protocol control (weight-matched non-diabetic rats, once daily oral vehicle)) was 149±18.8 % MPE.h and 149 (±18.8) % MPE.h and 149 (±7.7) % MPE.h and the “Mean (±SEM) dose normalised % MPE AUC” value ([1]; protocol control non-diabetic rats) was 62.0 (±3.2) % MPE AUC.h.kg.mg^−1. For the same compound, the “Mean (±SEM) % MPE AUC” value ([2]; morphine 2.4 mg/kg s.c., STZ-diabetic rats, 4 wks candesartan (2.0 mg/kg/day) re-initiation) was 120 (±12.9) % MPE.h, the “Mean (±SEM) % MPE AUC” value ([2]; morphine 2.4 mg/kg s.c., STZ-diabetic rats, 6 wks after cessation of candesartan 2.0 mg/kg/day (stopped at 24 wks post-STZ)) was 112±14.2 % MPE.h and 112 (±14.1) % MPE.h and the “Mean (±SEM) % MPE AUC” value ([2]; morphine 2.4 mg/kg s.c., STZ-diabetic rats, 6 wks candesartan (2.0 mg/kg/day) re-initiation) was 130±7.5 % MPE.h and 131 (±7.6) % MPE.h. The “Mean (±SEM) dose normalised % MPE AUC” value ([2]; morphine 2.4 mg/kg s.c., candesartan (0.5 mg/kg/day) treated STZ-diabetic rats, 3 wks post-STZ) was 81.4 (±2.9) % MPE AUC.h.kg.mg^−1, the “Mean (±SEM) % MPE AUC” value [2, 3] was 99 (±12.9) % MPE.h and the “Mean (±SEM) dose normalised % MPE AUC” value [2, 3] was 41.1 (±5.4) % MPE AUC.h.kg.mg^−1. For the same compound, the “Mean (±SEM) % MPE AUC” value ([2]; morphine 2.4 mg/kg s.c., candesartan (2.0 mg/kg/day) treated STZ-diabetic rats, 3 wks post-STZ) was 126 (±13.2) % MPE.h, the “Mean (±SEM) % MPE AUC” value ([2]; morphine 2.4 mg/kg s.c., candesartan (2.0 mg/kg/day) treated STZ-diabetic rats, 9 wks post-STZ) was 138 (±10.9) % MPE.h and the “Mean (±SEM) % MPE AUC” value ([2]; morphine 2.4 mg/kg s.c., candesartan (2.0 mg/kg/day) treated STZ-diabetic rats, 12 wks post-STZ) was 158 (±10.2) % MPE.h. For the same compound, the “Mean (±SEM) % MPE AUC” value ([2]; morphine 2.4 mg/kg s.c., candesartan (2.0 mg/kg/day) treated STZ-diabetic rats, 24 wks post-STZ) was 135±9.8 % MPE.h and 135 (±9.8) % MPE.h and 135 (±9.2) % MPE.h, the “Mean (±SEM) % MPE AUC” value ([2]; morphine 2.4 mg/kg s.c., low-dose candesartan (0.5 mg/kg/day) treated STZ-diabetic rats, 3 wks post-STZ) was 195 (±6.9) % MPE.h and the “Mean (±SEM) % MPE AUC” value [2, 4] was 171 (±5.9) % MPE.h. For the same compound, the “Mean (±SEM) dose normalised % MPE AUC” value [2, 4] was 28.0 (±1.0) % MPE AUC.h.kg.mg^−1, the “Mean (±SEM) % MPE AUC” value [2, 5] was 182 (±9.1) % MPE.h and the “Mean (±SEM) dose normalised % MPE AUC” value [2, 5] was 29.8 (±1.5) % MPE AUC.h.kg.mg^−1. The “Mean (±SEM) % MPE AUC” value [2, 6] was 166 (±6.7) % MPE.h, the “Mean (±SEM) dose normalised % MPE AUC” value [2, 6] was 17.1 (±0.5) % MPE AUC.h.kg.mg^−1 and the “Mean (±SEM) % MPE AUC” value [2, 7] was 34 (±11.4) % MPE.h. The “Mean (±SEM) dose normalised % MPE AUC” value [2, 7] was 2.5 (±0.8) % MPE AUC.h.kg.mg^−1, the “Mean (±SEM) % MPE AUC” value [2, 8] was 71 (±11.2) % MPE.h and the “Mean (±SEM) dose normalised % MPE AUC” value [2, 8] was 3.9(±0.6) % MPE AUC.h.kg.mg^−1. For the same compound, the “Mean (±SEM) % MPE AUC” value [2, 9] was 92 (±5.0) % MPE.h, the “Mean (±SEM) dose normalised % MPE AUC” value [2, 9] was 5.1 (±0.3) % MPE AUC.h.kg.mg^−1 and the “Mean (±SEM) % MPE AUC” value [2, 10] was 26 (±4.5) % MPE.h. For the same compound, the “Mean (±SEM) dose normalised % MPE AUC” value [2, 10] was 1.4 (±0.2) % MPE AUC.h.kg.mg^−1.
